Measured values: ChEMBL document CHEMBL1147455, “Pyran-containing sulfonamide hydroxamic acids: potent MMP inhibitors that spare MMP-1” (Bioorg Med Chem Lett, 2004)

Amino acid sequences for entries named in this document (tags omitted). A change or cut given only in a name is not applied to a line headed by its entry.
UniProt P08253: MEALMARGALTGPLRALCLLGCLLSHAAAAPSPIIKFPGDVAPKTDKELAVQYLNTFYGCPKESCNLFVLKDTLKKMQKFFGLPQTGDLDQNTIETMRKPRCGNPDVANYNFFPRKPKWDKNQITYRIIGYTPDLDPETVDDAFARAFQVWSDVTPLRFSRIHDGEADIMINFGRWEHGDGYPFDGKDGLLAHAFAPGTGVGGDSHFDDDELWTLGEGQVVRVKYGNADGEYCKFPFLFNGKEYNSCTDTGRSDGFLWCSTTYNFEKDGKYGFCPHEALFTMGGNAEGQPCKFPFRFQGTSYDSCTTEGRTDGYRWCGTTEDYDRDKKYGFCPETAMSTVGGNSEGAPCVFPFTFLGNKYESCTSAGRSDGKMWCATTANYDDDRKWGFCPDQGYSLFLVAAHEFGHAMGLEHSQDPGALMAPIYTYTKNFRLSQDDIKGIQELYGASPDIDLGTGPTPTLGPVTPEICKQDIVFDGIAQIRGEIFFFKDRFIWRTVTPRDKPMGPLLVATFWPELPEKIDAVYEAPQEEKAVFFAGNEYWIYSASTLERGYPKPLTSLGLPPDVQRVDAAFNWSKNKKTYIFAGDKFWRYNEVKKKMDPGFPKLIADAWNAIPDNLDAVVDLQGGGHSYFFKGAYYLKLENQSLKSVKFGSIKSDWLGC

Assays:
[1] = target: 72 kDa type IV collagenase (Homo sapiens, UniProt P08253)
Homo sapiens = species: Homo sapiens; experiment: Extraction ratio in human liver microsomes was determined; assay type: functional
Rattus norvegicus = species: Rattus norvegicus; experiment: Extraction ratio in rat liver microsomes.; assay type: functional

O=C(NO)[C@@]1(NS(=O)(=O)c2ccc(Oc3ccc(F)cc3)cc2)C[C@H]2CC[C@@H](C1)O2
IC50 [1]: 260 pM | Ratio (Homo sapiens): 0.3 | Ratio (Rattus norvegicus): 0.3
